Reference: publication PMC5031503
These are yes or no findings as the source states them, for the method shown. Binding seen in cells or lysates may run through a third protein. Some results given as binding are weak or reduced against the parent protein; the word gives no strength.

By UniProt entry, the sequences of proteins in these tests, tags left out.
UniProt Q9NYB9: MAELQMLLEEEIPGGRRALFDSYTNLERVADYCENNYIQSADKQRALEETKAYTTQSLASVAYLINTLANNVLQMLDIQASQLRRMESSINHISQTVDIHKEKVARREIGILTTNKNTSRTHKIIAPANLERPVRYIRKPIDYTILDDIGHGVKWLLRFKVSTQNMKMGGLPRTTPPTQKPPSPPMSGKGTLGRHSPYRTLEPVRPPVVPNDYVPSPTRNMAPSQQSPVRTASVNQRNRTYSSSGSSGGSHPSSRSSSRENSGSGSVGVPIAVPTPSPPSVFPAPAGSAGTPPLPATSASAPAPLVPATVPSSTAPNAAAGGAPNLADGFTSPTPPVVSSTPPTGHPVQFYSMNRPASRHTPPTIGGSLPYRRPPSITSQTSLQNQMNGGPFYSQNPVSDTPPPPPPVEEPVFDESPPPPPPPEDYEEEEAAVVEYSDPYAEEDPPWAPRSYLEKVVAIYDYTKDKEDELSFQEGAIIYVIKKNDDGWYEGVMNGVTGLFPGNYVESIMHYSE
UniProt Q70E73: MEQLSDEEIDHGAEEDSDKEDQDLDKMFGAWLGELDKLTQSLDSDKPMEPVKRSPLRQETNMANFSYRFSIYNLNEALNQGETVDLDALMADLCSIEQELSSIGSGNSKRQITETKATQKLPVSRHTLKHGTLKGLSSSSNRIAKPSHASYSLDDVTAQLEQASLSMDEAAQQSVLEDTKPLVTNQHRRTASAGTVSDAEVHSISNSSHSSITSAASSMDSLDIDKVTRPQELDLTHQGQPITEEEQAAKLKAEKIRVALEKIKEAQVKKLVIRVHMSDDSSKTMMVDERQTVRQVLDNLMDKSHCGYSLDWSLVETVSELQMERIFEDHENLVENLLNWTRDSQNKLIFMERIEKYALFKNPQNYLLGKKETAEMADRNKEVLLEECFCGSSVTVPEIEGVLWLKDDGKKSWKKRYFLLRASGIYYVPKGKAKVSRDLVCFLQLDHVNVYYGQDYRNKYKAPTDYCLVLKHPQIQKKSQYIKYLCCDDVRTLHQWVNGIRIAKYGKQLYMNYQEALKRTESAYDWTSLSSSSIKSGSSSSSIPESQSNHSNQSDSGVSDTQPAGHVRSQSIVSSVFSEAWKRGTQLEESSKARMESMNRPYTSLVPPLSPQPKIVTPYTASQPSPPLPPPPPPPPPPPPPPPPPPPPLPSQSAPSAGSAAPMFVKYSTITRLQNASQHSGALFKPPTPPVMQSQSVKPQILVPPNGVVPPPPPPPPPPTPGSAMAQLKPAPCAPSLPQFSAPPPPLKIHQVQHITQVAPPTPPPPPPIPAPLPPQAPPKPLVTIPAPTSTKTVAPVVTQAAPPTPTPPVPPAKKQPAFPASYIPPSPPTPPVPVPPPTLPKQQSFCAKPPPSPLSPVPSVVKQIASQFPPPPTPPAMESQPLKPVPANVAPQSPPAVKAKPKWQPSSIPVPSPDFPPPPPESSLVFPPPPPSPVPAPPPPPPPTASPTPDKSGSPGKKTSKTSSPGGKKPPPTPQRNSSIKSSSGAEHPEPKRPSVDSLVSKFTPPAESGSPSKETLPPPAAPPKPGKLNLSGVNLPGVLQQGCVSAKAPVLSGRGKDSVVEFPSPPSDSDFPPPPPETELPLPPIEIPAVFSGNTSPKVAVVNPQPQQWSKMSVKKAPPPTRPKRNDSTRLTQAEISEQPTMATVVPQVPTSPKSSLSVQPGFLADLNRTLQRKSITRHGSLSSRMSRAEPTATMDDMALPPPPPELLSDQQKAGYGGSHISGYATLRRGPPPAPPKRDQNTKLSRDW
UniProt Q9Y6W5: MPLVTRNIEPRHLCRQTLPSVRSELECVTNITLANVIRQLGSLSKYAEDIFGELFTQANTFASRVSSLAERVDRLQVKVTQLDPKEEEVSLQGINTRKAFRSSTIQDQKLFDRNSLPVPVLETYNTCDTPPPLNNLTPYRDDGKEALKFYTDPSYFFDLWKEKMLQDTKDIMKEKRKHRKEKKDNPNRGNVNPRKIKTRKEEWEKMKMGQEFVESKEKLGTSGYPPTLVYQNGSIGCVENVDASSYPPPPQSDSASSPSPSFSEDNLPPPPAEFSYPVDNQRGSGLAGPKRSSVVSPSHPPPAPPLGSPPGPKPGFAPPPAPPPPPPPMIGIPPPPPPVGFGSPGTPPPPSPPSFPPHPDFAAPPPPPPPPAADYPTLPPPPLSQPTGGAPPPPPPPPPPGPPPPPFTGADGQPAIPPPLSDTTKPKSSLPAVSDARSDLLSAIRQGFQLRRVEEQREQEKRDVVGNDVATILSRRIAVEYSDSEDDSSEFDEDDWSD

Biological target: GST-Abi2 (UniProt Q9NYB9)
Test: pull-down; GST-Abi ectopically expressed in HEK cells and pulled down from lysate; co-expressed GFP-Src or GFP; with or without the c-Src inhibitor KB SRC 4 (100 uM, 1 h) or DMSO; endogenous Scar/WAVE2 and endogenous Lpd detected

| Substance | binding |
| --- | --- |
| endogenous Lpd (Lamellipodin) (from UniProt Q70E73 1-1250) | binds |
| endogenous Scar/WAVE2 (from UniProt Q9Y6W5 1-498) | binds |
